Results on 1 compound are retold here after patent US10806765B2, “Immunologically active phyto-mixture and its use in the prevention and in a method for treatment of efflorescences” (priority 2015, dated 2020).

Each structure is given as a SMILES string.

The test relates to Staphylococcus aureus ATCC 25923. Put plainly: MIC/MBC, microbouillon dilution. It counts as cell-based. The note with it: ATCC25923. The procedure: Gram-Positive Bacteria • Methicillin resistant Staphylococcus aureus MRSA NCTC 10442 (MRSA NCTC 10442) • Staphylococcus aureus ATCC 25923 (S. aureus ATCC 25923) • Staphylococcus epidermidis ATCC 14990 (S. epid. ATCC 14990)
Gram-Negative Bacteria • Pseudomonas aeruginosa ATCC 27853 (P. aerug. ATCC 27853) and • Acinetobacter baumanii ATCC BAA747 (ATCC BAA747)
The bacteria were precultivated on Columbia medium with 5% sheep blood at 37° C. for 24 hours. On to two colonies were suspended in saline solution (0.9% NaCl) and adjusted to a turbidity of 0.5 McFarland standard which corresponds to 1×10^8 colony forming units per milliliter (CFU/ml). Subsequently, the suspension was diluted to 1×10^6 CFU/ml.
Determination of the Minimal Inhibitory Concentration (MIC) and the Minimum Bactericidal Concentration (MBC)
The MIC was determined by means of the microbouillon dilution process according to NCCLS (2006). For this purpose, the aqueous extracts were dissolved in water (w/v) and the ethanolic extracts in 5% DMSO (w/v) with 80 mg/ml each and Bur. simaruba as well as Aloe vera were suspended with 160 mg/ml. […]
The MIC was determined at 600 nm on the basis of the turbidity. […] The MBC was determined as lowest concentrations of the respective extract which totally kills the microorganisms. […]

For the compound `CN[C@H](CC(C)C)C(=O)N[C@H]1C(=O)N[C@@H](CC(N)=O)C(=O)N[C@H]2C(=O)N[C@H]3C(=O)N[C@H](C(=O)N[C@H](C(=O)O)c4cc(O)cc(O)c4-c4cc3ccc4O)[C@H](O)c3ccc(c(Cl)c3)Oc3cc2cc(c3O[C@@H]2O[C@H](CO)[C@@H](O)[C@H](O)[C@H]2O[C@H]2C[C@](C)(N)[C@H](O)[C@H](C)O2)Oc2ccc(cc2Cl)[C@H]1O` [Van, Vancomycin], the MIC amounted to 0.5 µg/mL.
